Measurements published in PMC2791861.
Results are given in words; binding and its absence hold for the method and conditions named. Some binding calls cover weakened binding; strength is not graded here. Sequences can lack the tags named with a protein.

Molecular target: T1, Myc-MLX (UniProt Q9UH92)
T1 sequence: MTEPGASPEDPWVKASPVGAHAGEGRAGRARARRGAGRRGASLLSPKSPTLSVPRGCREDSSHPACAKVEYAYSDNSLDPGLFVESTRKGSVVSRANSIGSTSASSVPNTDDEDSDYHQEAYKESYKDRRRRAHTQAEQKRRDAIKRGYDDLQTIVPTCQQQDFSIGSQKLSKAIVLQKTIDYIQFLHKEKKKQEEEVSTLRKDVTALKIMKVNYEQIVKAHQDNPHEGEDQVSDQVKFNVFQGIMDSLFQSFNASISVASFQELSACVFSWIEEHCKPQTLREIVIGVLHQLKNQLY
Assay: native gel or EMSA; 33P-end-labelled Txnip promoter probes (CAT/ChoRE-a or iCAT/ChoRE-b) mixed with 5 ug whole cell extract of HeLa cells over-expressing HA-MondoA and Myc-MLX, room temperature 30 min; 0.5 ug anti-HA, anti-Myc or anti-MLX antibody for inhibition or super-shift of the ChoRE band; 4% polyacrylamide gel

binding: binds
B1: HA-MondoA (protein, UniProt Q9HAP2 1-919)
chain: MAADVFMCSPRRPRSRGRQVLLKPQVSEDDDDSDTDEPSPPPASGAATPARAHASAAPPPPRAGPGREEPPRRQQIIHSGHFMVSSPHREHPPKKGYDFDTVNKQTCQTYSFGKTSSCHLSIDASLTKLFECMTLAYSGKLVSPKWKNFKGLKLQWRDKIRLNNAIWRAWYMQYLEKRKNPVCHFVTPLDGSVDVDEHRRPEAITTEGKYWKSRIEIVIREYHKWRTYFKKRLQQHKDEDLSSLVQDDDMLYWHKHGDGWKTPVPMEEDPLLDTDMLMSEFSDTLFSTLSSHQPVAWPNPREIAHLGNADMIQPGLIPLQPNLDFMDTFEPFQDLFSSSRSIFGSMLPASASAPVPDPNNPPAQESILPTTALPTVSLPDSLIAPPTAPSLAHMDEQGCEHTSRTEDPFIQPTDFGPSEPPLSVPQPFLPVFTMPLLSPSPAPPPISPVLPLVPPPATALNPPAPPTFHQPQKFAGVNKAPSVITHTASATLTHDAPATTFSQSQGLVITTHHPAPSAAPCGLALSPVTRPPQPRLTFVHPKPVSLTGGRPKQPHKIVPAPKPEPVSLVLKNARIAPAAFSGQPQAVIMTSGPLKREGMLASTVSQSNVVIAPAAIARAPGVPEFHSSILVTDLGHGTSSPPAPVSRLFPSTAQDPLGKGEQVPLHGGSPQVTVTGPSRDCPNSGQASPCASEQSPSPQSPQNNCSGKSDPKNVAALKNRQMKHISAEQKRRFNIKMCFDMLNSLISNNSKLTSHAITLQKTVEYITKLQQERGQMQEEARRLREEIEELNATIISCQQLLPATGVPVTRRQFDHMKDMFDEYVKTRTLQNWKFWIFSIIIKPLFESFKGMVSTSSLEELHRTALSWLDQHCSLPILRPMVLSTLRQLSTSTSILTDPAQLPEQASKAVTRIGKRLGES
